Data taken from patent US8236509B2, “Method for preparing antibody monolayers which have controlled orientation using peptide hybrid” (Korea Research Institute of Bioscience and Biotechnology, priority 2007, dated 2012).
Some results were stated once for a whole list of compounds, not compound by compound.

System: human, rabbit, mouse and goat antibodies
Assay: SPR binding capacity on peptide-hybrid-treated CM-5 Au sensor chip, different antibodies
Settings: antibody 5 μg/ml in PBS
Protocol: Then, PBS containing 100 μM of the peptide hybrid was spilled thereon at the same speed for 30 minutes. […] The surface area remaining non-reacted with the peptide hybrid was inactivated by using 1 M of ethanolamine solution (pH 8.5).

| Substance | SPR reaction values |
| --- | --- |
| H2NGHWRGWVS-NH(CH2CH2O)nCH2CH2CO-Cys-NH2 (C-terminal PEG linker and Cys-NH2) [formula 3, ID; NO: 5 GHWRGWVS] | up to 200 RU |
| (RTY)4K2KGNHCH2CH2(OCH2CH2)nOCH2CH22O-Cys-NH2 [formula 2] | up to 200 RU |
